This assay addresses Glutathione S-transferase (GST)-labeled HGS (Human) Recombinant Protein (Abnova) (human) (UniProt O14964). The experiment in a line: SPR (ProteOn XPR36), GST-labeled protein immobilized on GLH chip, GST as blank.

Sequences of proteins named here, by UniProt entry; tags and fusion partners are left off. A change or cut given only in a name is not applied to a line headed by its entry.
UniProt O14964: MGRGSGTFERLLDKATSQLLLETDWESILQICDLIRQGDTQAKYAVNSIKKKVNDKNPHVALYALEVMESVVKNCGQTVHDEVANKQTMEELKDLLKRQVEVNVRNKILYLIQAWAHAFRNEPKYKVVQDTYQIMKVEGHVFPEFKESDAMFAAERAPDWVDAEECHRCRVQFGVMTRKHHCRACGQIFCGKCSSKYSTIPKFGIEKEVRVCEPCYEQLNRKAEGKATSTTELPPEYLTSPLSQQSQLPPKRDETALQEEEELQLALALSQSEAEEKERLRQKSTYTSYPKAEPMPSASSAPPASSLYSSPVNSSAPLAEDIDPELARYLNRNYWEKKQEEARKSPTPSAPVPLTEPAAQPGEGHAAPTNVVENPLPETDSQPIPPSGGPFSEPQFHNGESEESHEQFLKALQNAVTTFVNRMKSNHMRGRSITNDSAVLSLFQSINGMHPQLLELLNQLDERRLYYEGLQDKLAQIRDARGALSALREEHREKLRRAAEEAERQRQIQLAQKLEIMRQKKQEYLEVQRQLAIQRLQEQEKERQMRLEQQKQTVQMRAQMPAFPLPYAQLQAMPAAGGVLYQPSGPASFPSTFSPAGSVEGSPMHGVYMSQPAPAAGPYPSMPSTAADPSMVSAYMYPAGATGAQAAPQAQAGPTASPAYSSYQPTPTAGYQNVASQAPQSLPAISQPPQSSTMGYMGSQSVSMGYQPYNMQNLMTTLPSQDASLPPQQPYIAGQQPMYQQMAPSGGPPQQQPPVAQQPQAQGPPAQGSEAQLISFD

Results on 3 molecules are retold here after patent publication US20220144905A1.

Results are given in words; binding and its absence hold for the method and conditions named. Some binding calls cover weakened binding; strength is not graded here.

B1: OP10-527 (peptide)
peptide: VQRQLAIQRL
Consider B1, for which the binding result is on record as “binds”.

B2: OP10-463 (peptide)
peptide: RRLYYEGLQD
Regarding B2, the binding entry is given as “binds”.

B3: OP10-507 (peptide)
peptide: QIQLAQKLEI
With B3, the binding result is recorded as “binds”.
